Assay results as given in article PMC5296650.
These are yes or no findings as the source states them, for the method shown. In cells and extracts the contact can be indirect.

Protein sequences, listed by entry. Tags and fused reporters are not part of them. Lines headed by an entry give the natural chain unless they say otherwise; changes in a name come on top.
UniProt Q6PHZ2: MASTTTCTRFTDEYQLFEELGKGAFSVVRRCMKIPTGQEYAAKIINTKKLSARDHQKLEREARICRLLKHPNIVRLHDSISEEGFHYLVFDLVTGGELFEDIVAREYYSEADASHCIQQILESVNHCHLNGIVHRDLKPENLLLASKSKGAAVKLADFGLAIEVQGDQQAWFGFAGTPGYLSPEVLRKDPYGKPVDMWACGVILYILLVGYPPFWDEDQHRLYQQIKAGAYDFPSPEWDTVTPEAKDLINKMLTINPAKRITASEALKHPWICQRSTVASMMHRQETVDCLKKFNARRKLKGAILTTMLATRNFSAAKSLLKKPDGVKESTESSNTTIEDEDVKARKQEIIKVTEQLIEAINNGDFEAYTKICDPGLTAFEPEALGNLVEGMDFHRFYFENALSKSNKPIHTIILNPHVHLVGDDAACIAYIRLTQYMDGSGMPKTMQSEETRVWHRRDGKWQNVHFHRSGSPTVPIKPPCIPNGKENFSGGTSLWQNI
UniProt Q01815: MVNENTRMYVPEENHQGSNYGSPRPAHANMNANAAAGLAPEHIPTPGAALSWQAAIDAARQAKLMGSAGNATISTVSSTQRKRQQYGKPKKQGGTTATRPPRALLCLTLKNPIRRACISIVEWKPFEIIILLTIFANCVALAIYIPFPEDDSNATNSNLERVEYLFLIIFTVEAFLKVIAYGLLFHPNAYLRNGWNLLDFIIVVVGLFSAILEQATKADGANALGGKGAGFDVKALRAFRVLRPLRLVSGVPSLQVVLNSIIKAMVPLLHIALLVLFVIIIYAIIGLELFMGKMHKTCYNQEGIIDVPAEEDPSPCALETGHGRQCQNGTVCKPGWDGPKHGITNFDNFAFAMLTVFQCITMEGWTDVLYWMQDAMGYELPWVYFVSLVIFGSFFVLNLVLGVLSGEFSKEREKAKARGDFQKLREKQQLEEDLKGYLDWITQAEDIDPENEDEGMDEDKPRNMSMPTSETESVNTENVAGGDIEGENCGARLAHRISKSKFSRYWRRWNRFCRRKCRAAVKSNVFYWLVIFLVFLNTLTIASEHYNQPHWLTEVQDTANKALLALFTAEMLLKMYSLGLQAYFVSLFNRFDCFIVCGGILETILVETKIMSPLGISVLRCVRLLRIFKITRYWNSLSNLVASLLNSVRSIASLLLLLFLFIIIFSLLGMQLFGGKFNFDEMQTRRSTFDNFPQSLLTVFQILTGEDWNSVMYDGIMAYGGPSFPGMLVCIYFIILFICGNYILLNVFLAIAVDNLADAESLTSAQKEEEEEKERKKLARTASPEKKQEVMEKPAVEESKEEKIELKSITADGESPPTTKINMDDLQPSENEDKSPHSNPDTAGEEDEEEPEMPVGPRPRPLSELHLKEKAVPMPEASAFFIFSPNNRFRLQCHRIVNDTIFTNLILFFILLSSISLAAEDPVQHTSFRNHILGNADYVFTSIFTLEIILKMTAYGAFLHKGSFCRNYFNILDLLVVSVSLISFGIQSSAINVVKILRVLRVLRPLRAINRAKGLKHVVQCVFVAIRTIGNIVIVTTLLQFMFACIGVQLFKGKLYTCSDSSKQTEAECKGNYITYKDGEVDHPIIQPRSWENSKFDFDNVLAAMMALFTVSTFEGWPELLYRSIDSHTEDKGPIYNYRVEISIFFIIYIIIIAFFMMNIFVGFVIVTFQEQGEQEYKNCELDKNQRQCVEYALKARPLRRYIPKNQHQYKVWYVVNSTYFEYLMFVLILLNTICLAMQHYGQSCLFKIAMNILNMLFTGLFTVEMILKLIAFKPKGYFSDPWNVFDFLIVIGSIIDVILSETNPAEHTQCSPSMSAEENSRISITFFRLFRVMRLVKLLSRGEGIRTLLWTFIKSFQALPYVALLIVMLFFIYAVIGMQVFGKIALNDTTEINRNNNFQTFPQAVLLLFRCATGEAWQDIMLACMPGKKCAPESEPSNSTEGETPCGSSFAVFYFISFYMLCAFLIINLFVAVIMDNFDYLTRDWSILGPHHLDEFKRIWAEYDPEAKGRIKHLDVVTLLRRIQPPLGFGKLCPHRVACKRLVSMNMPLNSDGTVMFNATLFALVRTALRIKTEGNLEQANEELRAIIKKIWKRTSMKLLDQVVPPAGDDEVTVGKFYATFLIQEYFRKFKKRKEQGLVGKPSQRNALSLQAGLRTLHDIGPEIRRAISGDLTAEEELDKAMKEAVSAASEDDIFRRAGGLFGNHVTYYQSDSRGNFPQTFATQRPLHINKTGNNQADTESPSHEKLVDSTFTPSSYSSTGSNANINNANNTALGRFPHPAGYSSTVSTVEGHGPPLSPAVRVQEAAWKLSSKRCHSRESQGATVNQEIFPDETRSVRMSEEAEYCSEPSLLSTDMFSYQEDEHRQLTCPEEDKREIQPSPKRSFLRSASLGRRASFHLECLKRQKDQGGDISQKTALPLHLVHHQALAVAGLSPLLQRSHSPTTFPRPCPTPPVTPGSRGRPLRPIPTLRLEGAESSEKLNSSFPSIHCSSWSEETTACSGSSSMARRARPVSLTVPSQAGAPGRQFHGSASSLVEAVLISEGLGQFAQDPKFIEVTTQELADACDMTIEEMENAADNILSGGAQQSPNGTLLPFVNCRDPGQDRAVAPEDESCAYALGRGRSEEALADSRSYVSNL
UniProt Q91YI4: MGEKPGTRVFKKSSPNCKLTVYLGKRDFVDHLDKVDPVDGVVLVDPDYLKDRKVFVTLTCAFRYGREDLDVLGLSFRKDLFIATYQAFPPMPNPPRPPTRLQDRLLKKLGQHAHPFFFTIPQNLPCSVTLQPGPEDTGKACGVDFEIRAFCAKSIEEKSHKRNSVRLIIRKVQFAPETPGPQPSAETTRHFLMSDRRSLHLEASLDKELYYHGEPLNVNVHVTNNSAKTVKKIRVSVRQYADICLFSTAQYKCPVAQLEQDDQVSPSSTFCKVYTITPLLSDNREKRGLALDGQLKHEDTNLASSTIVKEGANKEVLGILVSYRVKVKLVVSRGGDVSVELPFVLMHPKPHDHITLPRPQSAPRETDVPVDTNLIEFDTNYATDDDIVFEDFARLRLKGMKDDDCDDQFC

Tests used:
[1] = target: CaMKIIδ, endogenous in mouse pancreatic islets (mouse (endogenous in pancreatic islets)) (UniProt Q6PHZ2); experiment: co-IP; lysate of ∼1,000 wt mouse pancreatic islets (20 mM Tris-HCl pH 8.0, 137 mM NaCl, 2 mM EDTA, 1% Nonidet P-40); precipitated overnight at 4 °C with anti-CaMKIIδ antibody or goat IgG, protein A/G agarose; blots with anti-barr2, anti-CaMKII (pan) and anti-CaV1.2 (α1) antibodies
[2] = target: CaV1.2 (α1-subunit), endogenous in mouse pancreatic islets (mouse (endogenous in pancreatic islets)) (UniProt Q01815); experiment: as above

CaV1.2 (α1-subunit), endogenous in mouse pancreatic islets (from UniProt Q01815 1-2139)
binding [1]: no binding

β-arrestin-2 (barr2), endogenous in mouse pancreatic islets (from UniProt Q91YI4 1-410)
binding [2]: no binding
